# Measured values reported in US6036941A, “Fluorogenic substrates for diagnosis and photodynamic treatment of tumors” (Consiglio Nazionale Delle Ricerche, priority 1995, dated 2000).
# Tested on: rat glioma (C6) cells
# Test: Intracellular accumulation and hydrolysis kinetics in C6 cell cultures
# Type: cell-based
# Settings: fluorescence pictures after treatment
# Procedure: Evaluations of the kinetics of intracellular accumulation of Rose Bengal acetate were performed on cultures of an established cell line of rat glioma (C6) which grows as a monolayer. This cell line is widely used for pharmaco-kinetic studies of fluorescent substances with photosensitisation activity by virtue of its rapid proliferation activity and the possibility of modifying the physiological activities of the cells.
# It is particularly important that, principally in short-term treatments, a continuous increase of intracellular Rose Bengal is recorded in the cells treated with the acetylated species, even when the cells are transferred into a medium devoid of this substance. This can easily be interpreted in terms of the balance between the processes of incorporation and hydrolysis. Since the process of incorporation is rapider than that of hydrolysis, inside the cells an accumulation is created of hydrolysable substance on which the enzyme can continue to effect its action through time.
# Further, it is interesting to note that the kinetics of hydrolysis of Rose Bengal acetate is accelerated by the cellular environment: the Km passes from about 10^-3 M in conditions of hydrolysis in solution to about 10^-6 M in the cells.
row,SMILES,localisation of fluorescence in the cells
1,CC(=O)Oc1c(I)cc2c(-c3c(Cl)c(Cl)c(Cl)c(Cl)c3C(=O)O)c3cc(I)c(=O)c(I)c-3oc2c1I [Rose Bengal acetate],all the cellular compartments except the nucleus
2,"O=C(O)c1c(Cl)c(Cl)c(Cl)c(Cl)c1-c1c2cc(I)c(=O)c(I)c-2oc2c(I)c(O)c(I)cc12 [Rose Bengal, reference compound]",limited to the cellular membrane
